Chains of the proteins cited; added tags and fusions are not shown.
UniProt B3VKG9: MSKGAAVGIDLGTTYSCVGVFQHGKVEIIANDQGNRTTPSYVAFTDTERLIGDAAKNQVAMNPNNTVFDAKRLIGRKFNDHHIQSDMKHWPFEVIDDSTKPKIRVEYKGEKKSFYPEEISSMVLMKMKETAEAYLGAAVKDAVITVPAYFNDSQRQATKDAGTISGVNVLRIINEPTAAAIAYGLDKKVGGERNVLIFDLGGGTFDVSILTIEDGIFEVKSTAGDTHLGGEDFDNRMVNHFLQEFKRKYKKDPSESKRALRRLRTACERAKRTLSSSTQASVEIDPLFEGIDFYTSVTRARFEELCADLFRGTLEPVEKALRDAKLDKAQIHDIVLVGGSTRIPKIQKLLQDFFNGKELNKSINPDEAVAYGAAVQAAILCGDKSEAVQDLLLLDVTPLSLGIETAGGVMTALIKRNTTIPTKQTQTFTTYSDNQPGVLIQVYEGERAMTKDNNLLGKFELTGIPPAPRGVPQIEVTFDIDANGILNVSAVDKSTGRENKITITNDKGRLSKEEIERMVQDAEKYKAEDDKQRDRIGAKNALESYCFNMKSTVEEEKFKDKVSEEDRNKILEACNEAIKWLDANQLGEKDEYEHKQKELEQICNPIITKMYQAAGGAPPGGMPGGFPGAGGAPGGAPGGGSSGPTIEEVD
UniProt A0A0F7W424: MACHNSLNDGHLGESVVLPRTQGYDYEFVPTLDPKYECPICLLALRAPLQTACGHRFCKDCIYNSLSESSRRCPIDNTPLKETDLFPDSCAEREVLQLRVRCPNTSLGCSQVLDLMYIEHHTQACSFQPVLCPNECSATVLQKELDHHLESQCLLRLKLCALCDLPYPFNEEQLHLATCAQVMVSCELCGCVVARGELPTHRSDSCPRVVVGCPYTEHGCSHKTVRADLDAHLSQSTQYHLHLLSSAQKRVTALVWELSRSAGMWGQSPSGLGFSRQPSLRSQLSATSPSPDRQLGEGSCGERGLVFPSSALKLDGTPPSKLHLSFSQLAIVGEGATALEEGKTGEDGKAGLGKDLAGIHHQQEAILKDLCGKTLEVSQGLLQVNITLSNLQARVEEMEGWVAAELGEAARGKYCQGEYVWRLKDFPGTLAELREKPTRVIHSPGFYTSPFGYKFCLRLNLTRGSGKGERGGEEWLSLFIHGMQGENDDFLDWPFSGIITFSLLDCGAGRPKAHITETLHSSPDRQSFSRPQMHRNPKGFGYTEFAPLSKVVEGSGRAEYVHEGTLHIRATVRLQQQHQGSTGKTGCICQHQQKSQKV

In PMC8382196:

Target: heat shock protein 70 (Scylla paramamosain (endogenous in mud crab hemocytes)) (UniProt B3VKG9)
Assay: affinity purification with mass spectrometry; mud crab hemocyte lysate, Co-IP with anti-HSP70 IgG or anti-TRAF6 IgG on Protein G-agarose beads, 4°C overnight, eluted with 0.1M glycine, SDS-PAGE and LC-MS/MS

Q: Which binding does the source give for “TNF receptor associated factor 6 (from UniProt A0A0F7W424 1-598)” here?
A: binds

Results are given in words; binding and its absence hold for the method and conditions named. In cells and extracts the contact can be indirect. These calls come from enrichment with a bait or labelling near it, and not all partners need be listed.
